{"source": "PubChem BioAssay AID743121 (NCATS, 2013)", "purpose": "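Genes whose silencing strengthens cell killing by camptothecin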 (primary screen)", "cells": "MDA-MB-231 cells, a human breast cancer line", "reagents": "single siRNA against human genes, 20 nM siRNA (0.8 pmol per well)", "timing": "120 h (drug added 48 h after transfection, read 72 h later)", "challenge": "camptothecin 20 nM (about EC30) for 72 h; vehicle 0.1% DMSO in parallel plates", "measured": "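Cell viability by ATP luminescence (CellTiter-Glo) as % of non-targeting siRNA wells, and the log2 ratio of viability without drug over viability with camptothecin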", "direction": "log2 vehicle/camptothecin viability: higher = stronger sensitisation to camptothecin", "call rule": "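Each gene scored by redundant siRNA activity (RSA) over its individual siRNA ratios; a gene is called active at p < 0.001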", "note": "Shown is an unselected part of about 26,000 deposited reagents. Of all reagents, 167 (0.63%) got an active call. 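Calls are per gene from RSA p-values that are not deposited; an individual active-marked siRNA can sensitise only weakly.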 The numbers tell different reagents against one gene apart. Not all columns of the deposit are shown."}
{"target gene": "RXFP3 (relaxin family peptide receptor 3)", "reagent no.": 1, "log2 vehicle/camptothecin viability": 0.641, "Call": "inactive"}
{"target gene": "RXFP3 (relaxin family peptide receptor 3)", "reagent no.": 2, "log2 vehicle/camptothecin viability": 0.0767, "Call": "inactive"}
{"target gene": "RXFP3 (relaxin family peptide receptor 3)", "reagent no.": 3, "log2 vehicle/camptothecin viability": 0.166, "Call": "inactive"}
{"target gene": "RXFP3 (relaxin family peptide receptor 3)", "reagent no.": 4, "log2 vehicle/camptothecin viability": 0.0373, "Call": "inactive"}
{"target gene": "NLRC3 (NLR family CARD domain containing 3)", "reagent no.": 1, "log2 vehicle/camptothecin viability": 1.48, "Call": "inactive"}
{"target gene": "NLRC3 (NLR family CARD domain containing 3)", "reagent no.": 2, "log2 vehicle/camptothecin viability": -0.13, "Call": "inactive"}
{"target gene": "NLRC3 (NLR family CARD domain containing 3)", "reagent no.": 3, "log2 vehicle/camptothecin viability": -0.176, "Call": "inactive"}
{"target gene": "NLRC3 (NLR family CARD domain containing 3)", "reagent no.": 4, "log2 vehicle/camptothecin viability": -0.00924, "Call": "inactive"}
{"target gene": "LBR (lamin B receptor)", "reagent no.": 1, "log2 vehicle/camptothecin viability": -0.234, "Call": "inactive"}
{"target gene": "LBR (lamin B receptor)", "reagent no.": 2, "log2 vehicle/camptothecin viability": -0.56, "Call": "inactive"}
{"target gene": "LBR (lamin B receptor)", "reagent no.": 3, "log2 vehicle/camptothecin viability": -0.134, "Call": "inactive"}
{"target gene": "MAPRE2 (microtubule associated protein RP/EB family member 2)", "reagent no.": 1, "log2 vehicle/camptothecin viability": -0.262, "Call": "inactive"}
{"target gene": "MAPRE2 (microtubule associated protein RP/EB family member 2)", "reagent no.": 2, "log2 vehicle/camptothecin viability": 0.366, "Call": "inactive"}
{"target gene": "MAPRE2 (microtubule associated protein RP/EB family member 2)", "reagent no.": 3, "log2 vehicle/camptothecin viability": 1.56, "Call": "inactive"}
{"target gene": "MAPRE2 (microtubule associated protein RP/EB family member 2)", "reagent no.": 4, "log2 vehicle/camptothecin viability": -0.223, "Call": "inactive"}
{"target gene": "DBI (diazepam binding inhibitor, acyl-CoA binding protein)", "reagent no.": 1, "log2 vehicle/camptothecin viability": -0.511, "Call": "inactive"}
{"target gene": "DBI (diazepam binding inhibitor, acyl-CoA binding protein)", "reagent no.": 2, "log2 vehicle/camptothecin viability": -0.445, "Call": "inactive"}
{"target gene": "DBI (diazepam binding inhibitor, acyl-CoA binding protein)", "reagent no.": 3, "log2 vehicle/camptothecin viability": -0.184, "Call": "inactive"}
{"target gene": "DBI (diazepam binding inhibitor, acyl-CoA binding protein)", "reagent no.": 4, "log2 vehicle/camptothecin viability": -0.218, "Call": "inactive"}
{"target gene": "EMD (emerin)", "reagent no.": 1, "log2 vehicle/camptothecin viability": -0.181, "Call": "inactive"}
{"target gene": "EMD (emerin)", "reagent no.": 2, "log2 vehicle/camptothecin viability": -0.243, "Call": "inactive"}
{"target gene": "EMD (emerin)", "reagent no.": 3, "log2 vehicle/camptothecin viability": -0.498, "Call": "inactive"}
{"target gene": "EMD (emerin)", "reagent no.": 4, "log2 vehicle/camptothecin viability": -0.039, "Call": "inactive"}
{"target gene": "ANK2 (ankyrin 2)", "reagent no.": 1, "log2 vehicle/camptothecin viability": -0.236, "Call": "inactive"}
{"target gene": "ANK2 (ankyrin 2)", "reagent no.": 2, "log2 vehicle/camptothecin viability": -0.139, "Call": "inactive"}
{"target gene": "ANK2 (ankyrin 2)", "reagent no.": 3, "log2 vehicle/camptothecin viability": -0.21, "Call": "inactive"}

Records listed so far whose target name begins with E or e (4):
{"target gene": "EMD (emerin)", "reagent no.": 1, "log2 vehicle/camptothecin viability": -0.181, "Call": "inactive"}
{"target gene": "EMD (emerin)", "reagent no.": 2, "log2 vehicle/camptothecin viability": -0.243, "Call": "inactive"}
{"target gene": "EMD (emerin)", "reagent no.": 3, "log2 vehicle/camptothecin viability": -0.498, "Call": "inactive"}
{"target gene": "EMD (emerin)", "reagent no.": 4, "log2 vehicle/camptothecin viability": -0.039, "Call": "inactive"}
